Among the data in the RNAGym collection of RNA variant scans (doi:10.1126/science.aae0568) are yeast fitness values, retold here.

Sequences and labels used below:
B1: tRNA (parent)
chain: GUUCCGUUGGCGUAAUGGUAACGCGUCUCCCUCCUAAGGAGAAGACUGCGGGUUCGAGUCCCGUACGGAACG

Variants at the background level are over-represented here.

The variants in the series derive from B1. Put plainly: yeast fitness relative to wild type (ratio to wild type); higher = fitter; tRNA-Arg(CCU), competitive growth, 37 C, YPD. The method, boiled down:
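Variants of the tRNA-Arg(CCU) gene were chemically synthesised with a 3% per-site mutation rate across 69 sites and placed at the native genomic locus in Saccharomyces cerevisiae. Six parallel replicates of the pooled strains were competed in YPD at 37°C for 24 hours, and gene amplicons from the start and end populations were read by 100-nucleotide paired-end sequencing. Darwinian fitness relative to wild type was derived from changes in genotype frequencies. Genotypes required ≥ 100 starting reads, and estimates < 0.5 were set to 0.5.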
Consider GUUCCGUUGGCGAAAUGGUAACGCGUCUCCCUCCUAAGGAGAAGACAGCGGGUUCGAGUACCGUACGAAACG, for which the yeast fitness is no more than 0.5. GUUCUGUUGGUGUUAUGGUAACGCGUCUCCCUCCUAAGGAGAAGACUGCGGGUUCGAGUCCCGUACGGAACG: the yeast fitness turned out to be 0.57. Under GUUCCGUUGGCGUAAUGGUAACGGGUCUCCCUCCUAAGGAGAAGACUGCGGGUUCGCGUCCCGUACGGAACG stands no more than 0.5. On to GUUCCGUUGGCGUGAUGGUAACGCGUGUCCCUCGUAUGGAGAAGACUGCGGGAUGGAGUCCCGUACGGAACG, for which the yeast fitness is no more than 0.5.

In the case of GUUCCGUUGGCGUAAAGGUAAUGCGCCUCCCUCCUAAGGAGAAGACUGCGGGUUCGAGUCCCGUACAGAACG, the yeast fitness is no more than 0.5.

Consider GUUCCGUUGCCGUAAUGGUAAAGGGUCUCCCUCCUAAGGAGAAGACUGCGGGUUCGAGUCCCGUACGGAACG, for which the yeast fitness is no more than 0.5.

In the case of GUUCCGUUGGCGUAAUGGUGACGCGUCUCCCUCCUAAGGAGAAGACUGCGGGUUUGAGUCACGUACGGAACG, the yeast fitness was no more than 0.5. In the case of GUUCCGUUGGAGUAAUGGUAACGCGUCUCCCUCCUAAGGAGAAGACUGCGGCUUCGAGUCCCGUACAGAACG, the yeast fitness is no more than 0.5.

As for GUUCUGUUGGCGUACUGGUAACGCGUCUACCUCCUAAGGAGAAGACUGCGGGUUCGAGUCCCGUACGCAACG, the yeast fitness is no more than 0.5. For GCCCCGUUGGCGUAAUGGUAACGCGUCUCCCUCUUAAGGAGAAGACUGCGGGUUCGAGUCCCGUAUGGAACG, the yeast fitness was no more than 0.5. Under GUUCCGUUGGCGUAAUGGUUACGCGCCUCCCUCGUCAGGAGAAGACUGCGGGUUUGAGUCCCGUUCGGAACG stands no more than 0.5; under GUUCCGUUGGCGUUAUGGUAACGCGUCUCCCUCCUAAGGAGAAGACUGCGGGUUCCUGUCACGUACGGACCG, no more than 0.5. Under GUUCCGUCGGCGUGAUGGUAACGCGUCUCCCACCUAAGGAGAAGACUGCGGGUUCGAGUCCCGUACGGAACG stands 0.538; under GUUCCGUUGGCGUAAUGGUGACGCGUCUCCCUCCUAAUGAGACGACUGCGGGUUCGUGUCCCGUACGGAACG, no more than 0.5. Consider GUUCCGUGGGCGUUACGGUAACGCGUCUCCCUCCUAAGGUGAAGACUCCGGGUUCGAGUCCCGUACGGAACG, for which the yeast fitness is no more than 0.5. GUGCCGUAGGCGUAAUGGUAACGAGUCUCCCUCCUAAGGAGAAGACUGCGGGUUCGAGUCCCGUACGGAACG: the yeast fitness is no more than 0.5. Turning to GUUCCGUUGGCAUAAUGGUAACGCGUCUCCCUCCUAAGGAGUAGACUGCGGGUUCGUGUCCCGUACGGAACG, the yeast fitness is no more than 0.5. In the case of GGUCCGUUCCCGUAAUGGUAACGUGUCUGACUCCUAAGGAGAAGACUGCGGGUUCGAGUCCCGUACGGAACG, the yeast fitness was no more than 0.5. GUUCAGUUGGCGUAACGGUAAUGCGUCUCCCUCCUAAGGAGAAGACUGCGGGUUCGAGUCCCGUUCGGAACG: the yeast fitness was no more than 0.5.

Turning to GUUCCGUUGGCGUAAUGGAAACGCGUGUCCCUCCUAAGGAGAAGACUGCGGGUUUGAGUCCCGUACGGAACG, the yeast fitness was no more than 0.5. In the case of GUACCGUUGGCGUAAUGGUAACGCGUCUCCCUCCUAAGGAGACGACUGCGGGUUCGAGUCCAGUAGGGAACG, the yeast fitness is no more than 0.5.

Regarding GUUCCGUUGGCGUAAUGGUAACGCGUCUCCCUCCUAAGGAGAAGACUGCGGGUUUGAGCCCCGUCCGGAACG, the yeast fitness is no more than 0.5.

Consider GUUCUGUUGGAGUAAUGGUAACGCGUCUCCCUCCUAAGGAGAAGUCUGCGGGUUCGAGUCCCGUACGGUACG, for which the yeast fitness was no more than 0.5. For GUUCCGUUGGCGUACUGCUAACGCGUCUCCCUCCUAAGGAGAAGACUGCGGGUUAGAGUCCCGUACGGCACG, the yeast fitness was no more than 0.5.

With GUUCCGUUGCCGUAAUGGUAGCGCGUCUCCCUCCUAAGGAGAAGACUGCGGGUUGGGGUACCGUACGGAACG, the yeast fitness is no more than 0.5. GUUCCGUUGGCGUCAUGGUAACGCGUCUCCCUCCUAAGGAGAAGUCUGCCGGUUCGAGUCCCGUACGGAACG: the yeast fitness is no more than 0.5.

As to GUUCCGUUGGCGUAAUGGUAGCGGGUCUACCUCCUAAGGAGAUGACUGCGGGUUCGAGUCCCGUACGCAACG, the yeast fitness is no more than 0.5.

Take GUUCCGUUGGCGUAAUGGUAGCGCGUCUCCCUCCUAAGGAGAAGACUGCGGGUUUGAGUCCCGUACGGAACG: the yeast fitness came out at 0.704.

Consider GUUCCGUUGGCGUAAUGGUAACGCGUUUCCCUCCUAAGGGGAAGACUGUGAGUUCGAGUCCCGUACGGAACG, for which the yeast fitness is no more than 0.5.

For GUUCCGUUGACGUAAUGGUAACGCGACUCCCUCCUAAGGAGAAGACUGGGGGUUCGAGUCCCGUACGGAACG, the yeast fitness was no more than 0.5. For GUUCCGGUGGCGUAAUGGAAAGGGGUCUCCCUCCUAAGGGGAAGACUGCGGGUUGGAGUCCCGUACGGAUCG, the yeast fitness is no more than 0.5. The same measure for GUUCCGUUGGCGUACUGGUAACGCGUUUCCCUCCUAAGGAGAAGACUGCGGGUUCGAGUCCCAUACGGAACG: no more than 0.5; for GUUCCGCCGGCGUAAUGGUAACGCGUCUCCCUCCUAAGGAGAAGACUGCGGGUUCGAGUCUCGUACGCAACG: no more than 0.5; for GUUACGUUGGUGUAAUGGUAACGCGUCUGCCACCUAAGGAGAAGACUGCGGGUUCGAGUCCAGUACGGAACG: no more than 0.5.

Regarding GUUCCGUUGGCGUAAUGGUAACGCGUCUCCAUCCUAAGGAGAAGACUGCGGGUUCAAGUCCCGUGAGCAACG, the yeast fitness came out at 0.562. Under GUUCCGUUGGCGUAAUGGUAACGCGGCUCCCUCCUAAGGAGAAGACUGCGGGUGCGAGUCCCGUACGGUACG stands no more than 0.5; under GUUCCGUUGGCGUAAUGGUAACGCGUCACCCUCCUAAGGAGAAGACUGCGGGUACGAGUCCCGUACGGAACG, 0.594.
